Among the data in publication PMC4587574 are binding values, retold here.

Assay in all cases: co-IP; HEK293 cells co-transfected with Flag-HSP90, Flag-HSP70 or Flag-tagged HSP90 domain constructs and GFP-tagged PABPN1; lysates precipitated with anti-Flag antibody, blotted with anti-GFP
One test concerns the target Flag-HSP70 (mouse).
Test [1] concerns the target Flag-HSP90 (full-length) (mouse).
Test [2] deals with Flag-tagged HSP90 Δ233–439 (mouse).
Test [3] deals with Flag-tagged HSP90 N-terminal fragment (aa 1–232) (mouse).
Test [4] concerns the target Flag-tagged HSP90 (aa 1–620) (mouse).
Test [5] concerns the target Flag-tagged HSP90 (aa 1–439) (mouse).

No constants are given. Whether binding was seen depends on the method and setting. Binding seen in cells or lysates may run through a third protein. For some assays here: A result given as binding can be weak or reduced; the word gives no strength. Tags and fused reporters may be left off the sequences shown.

B1: GFP-tagged A10-PABPN1 (protein, UniProt Q86U42 1-306)
chain: MAAAAAAAAAAGAAGGRGSGPGRRRHLVPGAGGEAGEGAPGGAGDYGNGLESEELEPEELLLEPEPEPEPEEEPPRPRAPPGAPGPGPGSGAPGSQEEEEEPGLVEGDPGDGAIEDPELEAIKARVREMEEEAEKLKELQNEVEKQMNMSPPPGNAGPVIMSIEEKMEADARSIYVGNVDYGATAEELEAHFHGCGSVNRVTILCDKFSGHPKGFAYIEFSDKESVRTSLALDESLFRGRQIKVIPKRTNRPGISTTDRGFPRARYRARTTNYNSSRSRFYSGFNSRPRGRVYRGRARATSWYSPY
For the molecule B1, the binding result (with Flag-HSP70 (mouse); in test [1]) was “binds” in each case.

B2: GFP-tagged A17-PABPN1 (protein, UniProt Q86U42 1-306)
chain: MAAAAAAAAAAAAAAAAAGAAGGRGSGPGRRRHLVPGAGGEAGEGAPGGAGDYGNGLESEELEPEELLLEPEPEPEPEEEPPRPRAPPGAPGPGPGSGAPGSQEEEEEPGLVEGDPGDGAIEDPELEAIKARVREMEEEAEKLKELQNEVEKQMNMSPPPGNAGPVIMSIEEKMEADARSIYVGNVDYGATAEELEAHFHGCGSVNRVTILCDKFSGHPKGFAYIEFSDKESVRTSLALDESLFRGRQIKVIPKRTNRPGISTTDRGFPRARYRARTTNYNSSRSRFYSGFNSRPRGRVYRGRARATSWYSPY
For B2, the binding result with Flag-HSP70 (mouse) is listed as “binds”; in test [1] it was “binds”; in test [2] it was “binds”; in test [3], “no binding”; in test [4] it was “binds”; in test [5] it was “binds”.
